The values that follow come from patent US20140057970.

Amino acid sequences for entries named in this document (tags omitted). A change or cut given only in a name is not applied to a line headed by its entry.
UniProt P81172: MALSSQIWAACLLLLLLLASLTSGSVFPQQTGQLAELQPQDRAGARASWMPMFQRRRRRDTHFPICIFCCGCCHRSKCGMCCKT
UniProt Q9EQ21: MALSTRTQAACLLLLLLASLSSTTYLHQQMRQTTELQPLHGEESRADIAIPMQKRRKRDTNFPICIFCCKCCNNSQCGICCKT
UniProt Q99MH3: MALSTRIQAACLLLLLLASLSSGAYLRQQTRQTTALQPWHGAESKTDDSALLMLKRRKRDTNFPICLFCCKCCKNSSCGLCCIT

In data set [1] the target is human hepcidin-20 (Homo sapiens) (UniProt P81172). In words: SPR. The following applies: L-RNA, similar to human hepcidin-25, synthetic protein, protein details: synthetic peptide (Bachem), mirror-image nucleic acid.
The target of data set [2] is T1, mouse hepcidin-25 (Mus musculus) (UniProt Q9EQ21).
T1 sequence: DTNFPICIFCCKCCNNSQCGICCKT
As to the kind of experiment: SPR. As to conditions: L-RNA, synthetic protein, protein details: synthetic peptide (Bachem), biotinylated, mirror-image nucleic acid.

For data set [3], the target named is T2, rat hepcidin-25 (Rattus norvegicus) (UniProt Q99MH3).
T2 sequence: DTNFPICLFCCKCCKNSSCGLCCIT
In words: SPR. The following applies: L-RNA, synthetic protein, protein details: synthetic peptide (Bachem), biotinylated, mirror-image nucleic acid.

For data set [4], the target named is human hepcidin-22 (Homo sapiens) (UniProt P81172). As to the kind of experiment: competition with a labelled probe. As to conditions: L-RNA, similar to human hepcidin-25, synthetic protein, protein details: synthetic peptide, non-biotinylated, mirror-image nucleic acid.
Data set [5] has as its target T3, marmoset hepcidin-25 (UniProt A7XEI5).
T3 sequence (looked up): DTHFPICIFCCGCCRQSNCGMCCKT
As to the kind of experiment: competition with a labelled probe. The following applies: L-RNA, synthetic protein, protein details: synthetic L-peptide, non-biotinylated, mirror-image nucleic acid.

The target in data set [6] is T4, human hepcidin-25 (L-peptide) (Homo sapiens) (UniProt P81172).
T4 sequence: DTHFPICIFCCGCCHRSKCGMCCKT
In words: pull-down. The following applies: L-RNA, 5'-NH2-HEG-HEG-HEG, coupled to NHS-Sepharose; immobilised spiegelmer almost completely depletes hepcidin spiked in human plasma, 25 C; blocked Sepharose control low binding; synthetic protein; protein details: synthetic peptide (Bachem), biotinylated for SPR; mirror-image nucleic acid; variant of 238-D4-008 spiegelmer.

In data set [7] the test system is T5, cynomolgus hepcidin-25 (Macaca fascicularis).
T5 sequence: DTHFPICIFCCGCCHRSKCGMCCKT
In words: inhibition of the protein. As to conditions: L-RNA, 5'-40 kDa PEG; in vivo cynomolgus, IL-6 induced endogenous hepcidin; serum iron decrease completely blocked; synthetic protein; protein details: synthetic peptide; mirror-image nucleic acid; variant of 238-D4-008 spiegelmer; dose not given here.

Data set [8] deals with T4, human hepcidin-25 (L-peptide) (Homo sapiens). As to the kind of experiment: inhibition of the protein. The following applies: L-RNA, 5'-40 kDa PEG; in vivo mouse; blocks serum iron decrease by human hepcidin-25 (56% without spiegelmer); synthetic protein; protein details: synthetic peptide (Bachem), biotinylated for SPR; mirror-image nucleic acid; variant of 238-D4-008 spiegelmer; dose not given here.

Where [9] appears, read: variant of 229-B1-001 spiegelmer.
[10] abbreviates: variant of 238-C4-001 spiegelmer.
The mark [11] stands for this setting: variant of 238-D4-001 spiegelmer.

The exact form of at least one protein or probe is not confirmed. For some assays here: Negatives hold for the conditions tested. For some assays here: Where a protein sequence is shown, tags need not be part of it. For some assays here: A weaker result is weaker than the reference pair of the same experiment.

In the case of “GCUGUGUAAAGUAGAGGACAAUUGUCGGCGUGAUAGUGCCACAGC [229-B1-002 spiegelmer]”, the binding result in data set [1] (variant of 229-B1-001 …) is “binds”; in data set [2] (setting [9]), “no binding”; in data set [3] (setting [9]), “no binding”; in data set [4] (setting [9]), “binds”.
Consider “GGCCGGACAGCCGGGGGACACCAUAUACAGACUACGAUACGGCC [238-C4-006 spiegelmer]”, for which the binding result was “binds” in data set [1] (variant of 238-C4-001 …); “no binding” in data set [2] (setting [10]); “no binding” in data set [3] (setting [10]); “binds” in data set [4] (setting [10]); “no binding” in data set [5] (setting [10]).
In the case of “GCGCCGUAUGGGAUUAAGUAAAUGAGGAGUUGGAGGAAGGGCGC [238-D4-008 spiegelmer]”, the binding result in data set [1] (variant of 238-D4-001 …) was “binds”; in data set [2] (setting [11]) it was “no binding”; in data set [3] (setting [11]), “no binding”; in data set [5] (setting [11]), “binds more weakly”.
Consider “GCGCCGUAUGGGAUUAAGUAAAUGAGGAGUUGGAGGAAGGGCGC [NOX-H94-3xHEG-amino]”, for which the binding result in data set [6] is given as “binds”.
In the case of “AGCGUGUCGUAUGGGAUUAAGUAAAUGAGGAGUUGGAGGAAGGGCAUGCU [238-D4-001 spiegelmer]”, the binding result in data set [1] is listed as “binds”; in data set [2], “no binding”; in data set [3], “no binding”; in data set [4] it was “binds”.
Regarding “GCGCCGUAUGGGAUUAAGUAAAUGAGGAGUUGGAGGAAGGGCGC [238-D4-008-5'-PEG (NOX-H94)]”, in data set [7], the “functional effect of the aptamer” value is given as “active”. Further, the functional effect of the aptamer (% of control serum iron) in data set [8] is 98.
